PubChem BioAssay AID1259260, Sanger Institute | 2017
This is one part, drawn at random, of 794 reagents tested. 13 of them (1.6%) were called active. 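Calls reflect only knock-down without drug; synergy above 0.15 was grouped apart and does not change the call.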 A number with no mark means an inactive call. Viability is capped at 1. Further read-outs or replicates are left out here. Not given: the amount of reagent, the time to read-out.

- Screen: 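Kinases whose knock-down kills colorectal cancer cells or boosts drug effects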 (primary screen)
- System: human NCI-H716 colorectal cancer cells
- Reagent: siRNA pool against human genes
- Conditions: anchor drugs BYL719 (alpelisib) 1 µM, cetuximab 5 µg/ml or trametinib 10 nM, each at a dose chosen to harm viability only mildly; DMSO vehicle for the knock-down-alone arm
- Detection: 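Mean viability over replicates against non-targeting siRNA, robust z-score without drug, and per-drug synergy comparing combined with single treatments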
- Reading the numbers: viability robust z-score, siRNA alone: higher = more surviving cells; below -3 called essential; viability vs control, no drug: higher = more surviving cells
- Call rule: 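a knock-down counts as essential if its no-drug robust z-score is lower than -3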
- Calls: active = essential (knock-down alone lowers viability); inactive = no essential effect

target gene | viability robust z-score, siRNA alone | viability vs control, no drug (fraction of control)
CDC7 (cell division cycle 7) | 0.602 | 1
STK26 (serine/threonine kinase 26) | -0.123 | 0.925
PRKACB (protein kinase cAMP-activated catalytic subunit beta) | 0.602 | 1
CSNK1A1L (casein kinase 1 alpha 1 like) | 0.491 | 0.988
PTGS1 (prostaglandin-endoperoxide synthase 1) | -2.22 | 0.707
EPHB1 (EPH receptor B1) | 0.602 | 1
PIP5K1C (phosphatidylinositol-4-phosphate 5-kinase type 1 gamma) | 0.602 | 1
GRK4 (G protein-coupled receptor kinase 4) | 0.602 | 1
BUB1 (BUB1 mitotic checkpoint serine/threonine kinase) | 0.602 | 1
ANKK1 (ankyrin repeat and kinase domain containing 1) | 0.602 | 1
SGK3 (serum/glucocorticoid regulated kinase family member 3) | 0.602 | 1
CKS2 (CDC28 protein kinase regulatory subunit 2) | 0.602 | 1
CDK3 (cyclin dependent kinase 3) | 0.602 | 1
MARK4 (microtubule affinity regulating kinase 4) | -0.373 | 0.899
KCNH2 (potassium voltage-gated channel subfamily H member 2) | 0.573 | 0.997
ERN1 (endoplasmic reticulum to nucleus signaling 1) | 0.602 | 1
ULK1 (unc-51 like autophagy activating kinase 1) | 0.602 | 1
EPHB3 (EPH receptor B3) | 0.602 | 1
CSNK1G2 (casein kinase 1 gamma 2) | 0.602 | 1
CDK18 (cyclin dependent kinase 18) | -2.02 | 0.727
GRK3 (G protein-coupled receptor kinase 3) | 0.602 | 1
CIB2 (calcium and integrin binding family member 2) | -0.193 | 0.917

In a second layout: 6 of the entries above.
EPHB1 (EPH receptor B1) | viability robust z-score, siRNA alone: 0.602; viability vs control, no drug (fraction of control): 1
PIP5K1C (phosphatidylinositol-4-phosphate 5-kinase type 1 gamma) | viability robust z-score, siRNA alone: 0.602; viability vs control, no drug (fraction of control): 1
GRK4 (G protein-coupled receptor kinase 4) | viability robust z-score, siRNA alone: 0.602; viability vs control, no drug (fraction of control): 1
BUB1 (BUB1 mitotic checkpoint serine/threonine kinase) | viability robust z-score, siRNA alone: 0.602; viability vs control, no drug (fraction of control): 1
ANKK1 (ankyrin repeat and kinase domain containing 1) | viability robust z-score, siRNA alone: 0.602; viability vs control, no drug (fraction of control): 1
SGK3 (serum/glucocorticoid regulated kinase family member 3) | viability robust z-score, siRNA alone: 0.602; viability vs control, no drug (fraction of control): 1

Continued.
target gene | viability robust z-score, siRNA alone | viability vs control, no drug (fraction of control)
ERN2 (endoplasmic reticulum to nucleus signaling 2) | -2.64 | 0.663
CTCF (CCCTC-binding factor) | 0.602 | 1
LMBR1 (limb development membrane protein 1) | 0.602 | 1
MED24 (mediator complex subunit 24) | 0.602 | 1
MAP3K20 (mitogen-activated protein kinase kinase kinase 20) | 0.602 | 1
LMTK1 (lemur tail kinase 1) | 0.602 | 1
PAK1 (p21 (RAC1) activated kinase 1) | 0.602 | 1
STK39 (serine/threonine kinase 39) | 0.602 | 1
LIMK1 (LIM domain kinase 1) | 0.602 | 1
PRKD2 (protein kinase D2) | 0.602 | 1
ELP1 (elongator acetyltransferase complex subunit 1) | 0.602 | 1
CDC42BPB (CDC42 binding protein kinase beta) | 0.602 | 1
STK4 (serine/threonine kinase 4) | 0.602 | 1
DLG4 (discs large MAGUK scaffold protein 4) | 0.0335 | 0.941
MST1R (macrophage stimulating 1 receptor) | 0.602 | 1
HK3 (hexokinase 3) | 0.602 | 1
MOK (MOK protein kinase) | -1.37 | 0.795
STK3 (serine/threonine kinase 3) | 0.602 | 1
SOS2 (SOS Ras/Rho guanine nucleotide exchange factor 2) | 0.602 | 1
MAP4K3 (mitogen-activated protein kinase kinase kinase kinase 3) | 0.405 | 0.98
TAB1 (TGF-beta activated kinase 1 (MAP3K7) binding protein 1) | -0.44 | 0.892
GTF2H1 (general transcription factor IIH subunit 1) | 0.602 | 1
IRAK4 (interleukin 1 receptor associated kinase 4) | 0.602 | 1
ITK (IL2 inducible T cell kinase) | 0.602 | 1
KRAS (KRas proto-oncogene, GTPase) | 0.602 | 1
AKAP9 (A-kinase anchoring protein 9) | -0.367 | 0.899
PSKH1 (protein serine kinase H1) | 0.602 | 1
RAF1 (Raf-1 proto-oncogene, serine/threonine kinase) | 0.602 | 1
